The data set deals with MMP14 in the HT1080 culture supernatants and the culture medium samples. The experiment in a line: Digital detection of MMP14 active component in HT1080 culture supernatants, culture media and recovered liquids in wells. It counts as biochemical, Human. The conditions noted are these: HT1080 culture Absent. As for the experimental part:
In addition, for detection of MMP14 activity, 1 mM Custom #1 was diluted with the buffer (4) to prepare a MMP14 detection solution containing 5 μM Custom #1 and 2 μM Alexa Fluor 647.

Regarding “[5-FAM]GRIGFLRTAK(TQ2)[OH] (5-FAM, TQ2 quencher, free acid) [Custom #1]”, the “MMP14 active component concentration” value (Experiment condition (III): FBS culture medium, Reaction 4 hr) worked out at 2.635e+11 mL⁻¹; the “MMP14 active component concentration” value (Experiment condition (III): FBS culture medium, Reaction 24 hr) is 2.744e+11 mL⁻¹; the “MMP14 active component concentration” value (Experiment condition (IX): MEM culture medium, Reaction 4 hr) is 4.3e+07 mL⁻¹; the “MMP14 active component concentration” value (Experiment condition (IX): MEM culture medium, Reaction 24 hr) is 5.7e+07 mL⁻¹; the “MMP14 active component concentration” value (Experiment condition (VI): Exo-FBS culture medium, Reaction 4 hr) is 2.487e+11 mL⁻¹; the “MMP14 active component concentration” value (Experiment condition (VI): Exo-FBS culture medium, Reaction 24 hr) was 2.407e+11 mL⁻¹.

Values taken from US20250290928A1, “METHOD, KIT AND DEVICE FOR DETECTING EXTRACELLULAR VESICLES” (priority 2022, published 2025).
